No constants are given. Whether binding was seen depends on the method and setting. Binding calls can cover weak binding; strength is not graded here.
How the values were obtained:
[1] = target: T1, Cavin-1-WT (full length of Cavin-1) in a Fluoppi vector (human) (UniProt Q6NZI2); assay: Fluoppi cell staining, legend of FIG. 9(3)
T1 sequence (looked up): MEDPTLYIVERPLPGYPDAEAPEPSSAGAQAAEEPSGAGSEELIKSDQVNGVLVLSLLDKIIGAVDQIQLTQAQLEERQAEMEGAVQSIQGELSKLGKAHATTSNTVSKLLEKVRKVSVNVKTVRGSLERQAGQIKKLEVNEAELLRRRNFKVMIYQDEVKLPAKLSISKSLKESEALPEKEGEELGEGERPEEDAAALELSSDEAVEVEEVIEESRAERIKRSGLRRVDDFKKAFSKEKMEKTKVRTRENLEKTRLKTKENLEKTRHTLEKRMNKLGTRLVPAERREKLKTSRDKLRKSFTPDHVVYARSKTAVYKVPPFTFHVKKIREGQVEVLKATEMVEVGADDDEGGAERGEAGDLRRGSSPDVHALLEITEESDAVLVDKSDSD

Protein sequences, listed by entry. Tags and fused reporters are not part of them. Lines headed by an entry give the natural chain unless they say otherwise; changes in a name come on top.
UniProt Q01973: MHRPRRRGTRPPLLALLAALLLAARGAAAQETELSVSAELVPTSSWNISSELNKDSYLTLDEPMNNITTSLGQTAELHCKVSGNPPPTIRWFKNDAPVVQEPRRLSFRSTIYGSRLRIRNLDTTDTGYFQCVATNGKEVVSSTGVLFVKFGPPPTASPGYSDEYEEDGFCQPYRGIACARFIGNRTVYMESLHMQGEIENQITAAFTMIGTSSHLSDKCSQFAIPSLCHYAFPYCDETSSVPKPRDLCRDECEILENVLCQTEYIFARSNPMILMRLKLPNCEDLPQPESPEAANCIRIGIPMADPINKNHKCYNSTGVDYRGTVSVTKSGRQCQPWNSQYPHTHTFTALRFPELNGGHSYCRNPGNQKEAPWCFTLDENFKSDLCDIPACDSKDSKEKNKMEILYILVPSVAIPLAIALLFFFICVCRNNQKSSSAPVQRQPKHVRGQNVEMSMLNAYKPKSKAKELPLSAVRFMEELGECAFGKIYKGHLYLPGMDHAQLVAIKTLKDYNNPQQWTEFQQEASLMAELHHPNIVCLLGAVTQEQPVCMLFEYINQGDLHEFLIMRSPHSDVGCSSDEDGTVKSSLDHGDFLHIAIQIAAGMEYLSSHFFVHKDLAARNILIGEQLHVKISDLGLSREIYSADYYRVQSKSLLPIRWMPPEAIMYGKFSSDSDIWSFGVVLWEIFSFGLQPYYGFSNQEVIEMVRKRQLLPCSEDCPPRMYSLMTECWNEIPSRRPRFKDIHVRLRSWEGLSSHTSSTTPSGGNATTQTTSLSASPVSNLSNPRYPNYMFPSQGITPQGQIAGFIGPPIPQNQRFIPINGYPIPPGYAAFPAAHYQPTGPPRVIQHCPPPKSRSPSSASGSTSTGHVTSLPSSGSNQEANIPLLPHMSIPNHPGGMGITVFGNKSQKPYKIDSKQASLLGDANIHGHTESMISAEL

[2] = target: T1, Cavin-1-WT (full length of Cavin-1) in a Fluoppi vector (human); assay: Fluoppi image-based protein-protein interaction analysis in HeLa cells
[3] = target: T1, Cavin-1-WT (full length of Cavin-1) in a Fluoppi vector (human); assay: Fluoppi cell staining, legend of FIG. 9(4)

Substance	binding [1]	binding [2]	binding [3]
ROR1-ICD (intracellular region of ROR1, from amino acid 428 to amino acid 937) (from UniProt Q01973)	binds	binds	
ROR1-TK2+TK3 (region from amino acid 564 to amino acid 746 of ROR1) (from UniProt Q01973)		binds	binds

Source: patent publication US20170315126A1, “METHOD FOR SCREENING COMPOUND SPECIFICALLY SUPPRESSING FORMATION OF CAVEOLAE OF CANCER CELLS, SCREENING KIT, VECTOR AND TRANSFORMANT TO BE USED IN KIT, AND METHOD FOR SELECTING PATIENT FOR WHOM MOLECULARLY TARGETED DRUG IS INDICATED” (NATIONAL UNIVERSITY CORPORATION NAGOYA INSTITUTE OF …, priority 2014, published 2017)
